Assay results: the supplement of paper PMC7238544
Structures can show the parent of a compound that is named as a salt. ± gives the standard deviation of the averaged measurements. The list shows a part of the results. The data scatter; read single values as rough.

Tests used:
hAMSC donor 1 [1] = assay: Hoechst total cell count ratio vs vehicle control; higher = more cells (less toxicity)
hAMSC donor 2 [2] = assay: as above
hAMSC donor 1 [3] = assay: transgenic luciferase activity (RLU/mg protein) fold change vs vehicle control (ratio); higher = more transgene expression
hAMSC donor 2 [4] = assay: as above
hAMSC donor 1 [5] = assay: transfection efficiency (EGFP+ cells / Hoechst count) fold change vs vehicle control (ratio); hAMSC are human adipose-derived mesenchymal stem cells given an EGFP-luciferase plasmid by lipofection; higher = enhanced transfection
hAMSC donor 2 [6] = assay: as above
[7] = priming compound concentration 0.2 µM
[8] = priming compound concentration 1.7 µM
[9] = priming compound concentration 13 µM

Row | SMILES | Hoechst total cell count ratio (hAMSC donor 1 [1]; [7]) | Hoechst total cell count ratio (hAMSC donor 1 [1]; [8]) | Hoechst total cell count ratio (hAMSC donor 1 [1]; [9]) | Hoechst total cell count ratio (hAMSC donor 2 [2]; [7]) | Hoechst total cell count ratio (hAMSC donor 2 [2]; [8]) | Hoechst total cell count ratio (hAMSC donor 2 [2]; [9]) | transgenic luciferase activity (hAMSC donor 1 [3]; [7]) | transgenic luciferase activity (hAMSC donor 1 [3]; [8]) | transgenic luciferase activity (hAMSC donor 2 [4]; [7]) | transgenic luciferase activity (hAMSC donor 2 [4]; [8]) | transgenic luciferase activity (hAMSC donor 2 [4]; [9]) | transfection efficiency (hAMSC donor 1 [5]; [7]) | transfection efficiency (hAMSC donor 1 [5]; [8]) | transfection efficiency (hAMSC donor 1 [5]; [9]) | transfection efficiency (hAMSC donor 2 [6]; [7]) | transfection efficiency (hAMSC donor 2 [6]; [8]) | transfection efficiency (hAMSC donor 2 [6]; [9]) | transgenic luciferase activity (hAMSC donor 1 [3]; [9])
1 | COc1cc(-c2ccc(=O)[nH]n2)ccc1OC(F)F [Zardaverine] | 1.12 ± 0.028 | 1.24 ± 0.1 | 1.13 ± 0.11 | 1.09 ± 0.14 | 1.52 ± 0.15 | 1.41 ± 0.27 | 0.698 ± 0.28 | 1.19 ± 0.36 | 0.822 ± 0.067 | 0.695 ± 0.23 | 0.588 ± 0.11 | 1.43 ± 0.28 | 1.88 ± 0.22 | 0.754 ± 0.16 | 1.05 ± 0.2 | 0.933 ± 0.14 | 0.987 ± 0.28 | 
2 | CCCNCC(O)COc1ccccc1C(=O)CCc1ccccc1 (stereo unspecified) [Propafenone] | 1.2 ± 0.15 | 1.08 ± 0.11 | 1.22 ± 0.21 | 1.15 ± 0.2 | 1.15 ± 0.055 | 1.39 ± 0.055 |  | 1.01 ± 0.43 | 0.487 ± 0.14 | 0.878 ± 0.23 | 0.58 ± 0.0091 | 1.26 ± 0.21 | 1.52 ± 0.16 | 1.16 ± 0.26 | 0.946 ± 0.23 | 1.06 ± 0.066 | 0.845 ± 0.093 | 0.248 ± 0.072
3 | COc1cc(C[C@@H](CO)[C@H](CO)Cc2ccc(O)c(OC)c2)ccc1O [Secoisolariciresinol] | 1.43 ± 0.018 | 1.1 ± 0.099 | 1.34 ± 0.098 | 1.05 ± 0.066 | 1.4 ± 0.056 | 0.873 ± 0.16 | 0.61 ± 0.051 | 1.18 ± 0.86 | 0.773 ± 0.23 | 0.687 ± 0.035 | 1.05 ± 0.28 | 1.15 ± 0.24 | 1.02 ± 0.06 | 1.05 ± 0.16 | 0.946 ± 0.075 | 0.871 ± 0.13 | 1.24 ± 0.24 | 
4 | Cc1cccc(CN2CCN(C(c3ccccc3)c3ccc(Cl)cc3)CC2)c1 (stereo unspecified) [Meclizine hydrochloride] | 1.59 ± 0.075 | 1.22 ± 0.091 | 1.34 ± 0.12 | 1.16 ± 0.055 | 1.12 ± 0.072 | 1.39 ± 0.79 | 0.792 ± 0.21 | 1.42 ± 1 | 0.905 ± 0.18 | 0.669 ± 0.1 | 0.861 ± 0.08 | 0.755 ± 0.093 | 0.821 ± 0.23 | 0.875 ± 0.21 | 1.21 ± 0.12 | 1.28 ± 0.057 | 1.18 ± 0.29 | 
5 | CC1(C)O[C@@H]2C[C@H]3[C@@H]4C[C@H](F)C5=CC(=O)C=C[C@]5(C)[C@@]4(F)[C@@H](O)C[C@]3(C)[C@]2(C(=O)CO)O1 [Fluocinolone acetonide] | 1.1 ± 0.032 | 1.09 ± 0.075 | 0.899 ± 0.12 | 1.21 ± 0.018 | 1.1 ± 0.091 | 1.28 ± 0.14 | 5.75 ± 0.6 | 7.71 ± 2.1 | 3.92 ± 0.81 | 6.09 ± 0.38 | 4.27 ± 0.49 | 2.74 ± 0.79 | 2.72 ± 0.9 | 2.06 ± 0.54 | 1.93 ± 0.31 | 2.41 ± 0.062 | 2.33 ± 0.5 | 
6 | Cc1cn([C@H]2C[C@H](N=[N+]=[N-])[C@@H](CO)O2)c(=O)[nH]c1=O [Zidovudine] | 1.41 ± 0.054 | 1.19 ± 0.062 | 1.5 ± 0.025 | 1.23 ± 0.094 | 1.13 ± 0.062 | 1.28 ± 0.21 |  | 0.307 ± 0.12 | 1.02 ± 0.63 | 0.783 ± 0.13 | 0.738 ± 0.14 | 0.754 ± 0.14 | 1.11 ± 0.1 | 0.853 ± 0.23 | 0.997 ± 0.4 | 1.21 ± 0.11 | 1.03 ± 0.16 | 1.36 ± 0.67
7 | C[N+](C)(C)C[C@H](O)CC(=O)[O-] [L-Carnitine inner salt] | 1.35 ± 0.044 | 1.24 ± 0.027 | 1.22 ± 0.034 | 1.1 ± 0.035 | 1.09 ± 0.098 | 1.17 ± 0.22 |  | 0.255 ± 0.058 | 0.924 ± 0.19 | 0.905 ± 0.17 | 0.784 ± 0.052 | 0.87 ± 0.21 | 1.78 ± 1.5 | 0.955 ± 0.19 | 1.11 ± 0.43 | 1.14 ± 0.19 | 1.03 ± 0.18 | 1.09 ± 0.46
8 | CC1=C(/C=C/C(C)=C/C=C/C(C)=C\C(=O)O)C(C)(C)CCC1 [Isotretinoin] | 1.12 ± 0.07 | 1.06 ± 0.17 | 1.14 ± 0.17 | 1.32 ± 0.097 | 1.26 ± 0.12 | 0.753 ± 0.16 | 0.802 ± 0.14 | 0.709 ± 0.48 | 0.596 ± 0.1 | 0.922 ± 0.077 | 0.572 ± 0.065 | 1.18 ± 0.44 | 0.884 ± 0.21 | 0.698 ± 0.067 | 1.32 ± 0.35 | 0.9743 ± 0.0051 | 0.977 ± 0.071 | 
9 | CCN(CC)CC#CCOC(=O)C(O)(c1ccccc1)C1CCCCC1 (stereo unspecified) [Oxybutynin hydrochloride] | 1.44 ± 0.073 | 1.08 ± 0.093 | 1.29 ± 0.16 | 0.986 ± 0.034 | 1.02 ± 0.062 | 1.32 ± 0.11 |  | 0.655 ± 0.081 | 1.31 ± 0.61 | 0.664 ± 0.12 | 0.509 ± 0.1 | 1.08 ± 0.022 | 1.25 ± 0.083 | 1.4 ± 0.14 | 0.869 ± 0.047 | 0.958 ± 0.044 | 0.778 ± 0.077 | 0.388 ± 0.11
10 | C[C@@H]1C[C@H]2[C@@H]3CCC4=CC(=O)C=C[C@]4(C)[C@@]3(F)[C@@H](O)C[C@]2(C)[C@H]1C(=O)CO [Desoximetasone] | 1.52 ± 0.17 | 1.24 ± 0.02 | 1.33 ± 0.19 | 1.12 ± 0.09 | 1.39 ± 0.02 | 1.12 ± 0.19 |  | 8.69 ± 0.88 | 1.49 ± 0.57 | 4.77 ± 0.45 | 4.26 ± 1.3 | 1.39 ± 0.45 | 2.11 ± 0.14 | 3.49 ± 0.33 | 1.58 ± 0.23 | 1.78 ± 0.02 | 1.61 ± 0.41 | 7.22 ± 3.2
11 | CN1CCN(C2=Nc3ccccc3Oc3ccc(Cl)cc32)CC1 [Loxapine succinate] | 1.06 ± 0.1 | 1.16 ± 0.12 | 1.04 ± 0.19 | 0.735 ± 0.076 | 1.07 ± 0.048 | 1.38 ± 0.16 | 0.582 ± 0.24 | 1.26 ± 0.9 | 0.758 ± 0.5 | 1.06 ± 0.28 | 0.598 ± 0.1 | 1.47 ± 0.68 | 1.15 ± 0.37 | 0.806 ± 0.42 | 1.49 ± 0.15 | 1.21 ± 0.27 | 0.964 ± 0.22 | 
12 | C[C@]12CCC(=O)C=C1CC[C@@H]1[C@@H]2C(=O)C[C@@]2(C)[C@H]1CC[C@]2(O)C(=O)CO [Cortisone] | 1.06 ± 0.091 | 1.37 ± 0.11 | 1.31 ± 0.12 | 1.13 ± 0.037 | 1.15 ± 0.12 | 0.982 ± 0.084 | 0.785 ± 0.26 | 2.21 ± 0.49 | 1.47 ± 0.41 | 0.829 ± 0.18 | 0.702 ± 0.19 | 1.39 ± 0.06 | 0.986 ± 0.27 | 1.1 ± 0.12 | 1.31 ± 0.087 | 1.17 ± 0.16 | 1.03 ± 0.14 | 
13 | CC[C@H]1OC(=O)[C@H](C)[C@@H](O[C@H]2C[C@@](C)(OC)[C@@H](O)[C@H](C)O2)[C@H](C)[C@@H](O[C@@H]2O[C@H](C)C[C@H](N(C)C)[C@H]2O)[C@](C)(O)C[C@@H](C)C(=O)[C@H](C)[C@@H](O)[C@]1(C)O [Erythromycin] | 1.14 ± 0.099 | 1.15 ± 0.046 | 1.3 ± 0.16 | 1.31 ± 0.23 | 1.24 ± 0.089 | 1.31 ± 0.027 |  | 0.285 ± 0.12 | 0.771 ± 0.14 | 0.845 ± 0.094 | 0.367 ± 0.035 | 1.37 ± 0.41 | 1.32 ± 0.052 | 0.67 ± 0.14 | 1.21 ± 0.25 | 1.04 ± 0.11 | 0.757 ± 0.051 | 0.86 ± 0.45
